Results are given in words; binding and its absence hold for the method and conditions named. Binding seen in cells or lysates may run through a third protein. A yes stands for co-enrichment or nearness to the bait. Other partners may have been found. Where a sequence is shown, tags or fusion partners need not be part of it.
Biological target: T1, wild type (WT) Taspase1-GFP (human) (UniProt Q9H6P5)
T1 sequence: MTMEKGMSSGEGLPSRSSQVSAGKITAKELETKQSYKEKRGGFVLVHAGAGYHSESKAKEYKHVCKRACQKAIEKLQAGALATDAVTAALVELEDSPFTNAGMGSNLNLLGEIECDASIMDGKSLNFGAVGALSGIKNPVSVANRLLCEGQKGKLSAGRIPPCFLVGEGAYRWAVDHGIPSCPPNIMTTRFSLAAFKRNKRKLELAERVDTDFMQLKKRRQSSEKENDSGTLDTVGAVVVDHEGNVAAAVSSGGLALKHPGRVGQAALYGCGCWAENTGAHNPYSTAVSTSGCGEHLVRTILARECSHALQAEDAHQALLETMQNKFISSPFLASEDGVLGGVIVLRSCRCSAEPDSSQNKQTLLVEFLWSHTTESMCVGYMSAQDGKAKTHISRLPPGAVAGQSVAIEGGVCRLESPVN
Experiment: affinity purification with mass spectrometry; Taspase1-GFP immunoprecipitates (anti-GFP beads, HEK 293T) compared with GFP; LC-MS/MS, label-free quantification

Amino acid sequences for entries named in this document (tags omitted).
UniProt P06748: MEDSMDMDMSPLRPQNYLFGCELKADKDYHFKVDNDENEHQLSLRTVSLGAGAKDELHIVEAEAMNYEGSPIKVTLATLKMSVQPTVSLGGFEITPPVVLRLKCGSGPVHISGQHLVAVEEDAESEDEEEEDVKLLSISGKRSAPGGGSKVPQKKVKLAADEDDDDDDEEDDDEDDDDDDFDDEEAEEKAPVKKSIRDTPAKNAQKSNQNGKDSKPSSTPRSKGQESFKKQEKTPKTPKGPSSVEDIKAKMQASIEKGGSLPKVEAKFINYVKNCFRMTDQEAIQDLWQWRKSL
UniProt Q02880: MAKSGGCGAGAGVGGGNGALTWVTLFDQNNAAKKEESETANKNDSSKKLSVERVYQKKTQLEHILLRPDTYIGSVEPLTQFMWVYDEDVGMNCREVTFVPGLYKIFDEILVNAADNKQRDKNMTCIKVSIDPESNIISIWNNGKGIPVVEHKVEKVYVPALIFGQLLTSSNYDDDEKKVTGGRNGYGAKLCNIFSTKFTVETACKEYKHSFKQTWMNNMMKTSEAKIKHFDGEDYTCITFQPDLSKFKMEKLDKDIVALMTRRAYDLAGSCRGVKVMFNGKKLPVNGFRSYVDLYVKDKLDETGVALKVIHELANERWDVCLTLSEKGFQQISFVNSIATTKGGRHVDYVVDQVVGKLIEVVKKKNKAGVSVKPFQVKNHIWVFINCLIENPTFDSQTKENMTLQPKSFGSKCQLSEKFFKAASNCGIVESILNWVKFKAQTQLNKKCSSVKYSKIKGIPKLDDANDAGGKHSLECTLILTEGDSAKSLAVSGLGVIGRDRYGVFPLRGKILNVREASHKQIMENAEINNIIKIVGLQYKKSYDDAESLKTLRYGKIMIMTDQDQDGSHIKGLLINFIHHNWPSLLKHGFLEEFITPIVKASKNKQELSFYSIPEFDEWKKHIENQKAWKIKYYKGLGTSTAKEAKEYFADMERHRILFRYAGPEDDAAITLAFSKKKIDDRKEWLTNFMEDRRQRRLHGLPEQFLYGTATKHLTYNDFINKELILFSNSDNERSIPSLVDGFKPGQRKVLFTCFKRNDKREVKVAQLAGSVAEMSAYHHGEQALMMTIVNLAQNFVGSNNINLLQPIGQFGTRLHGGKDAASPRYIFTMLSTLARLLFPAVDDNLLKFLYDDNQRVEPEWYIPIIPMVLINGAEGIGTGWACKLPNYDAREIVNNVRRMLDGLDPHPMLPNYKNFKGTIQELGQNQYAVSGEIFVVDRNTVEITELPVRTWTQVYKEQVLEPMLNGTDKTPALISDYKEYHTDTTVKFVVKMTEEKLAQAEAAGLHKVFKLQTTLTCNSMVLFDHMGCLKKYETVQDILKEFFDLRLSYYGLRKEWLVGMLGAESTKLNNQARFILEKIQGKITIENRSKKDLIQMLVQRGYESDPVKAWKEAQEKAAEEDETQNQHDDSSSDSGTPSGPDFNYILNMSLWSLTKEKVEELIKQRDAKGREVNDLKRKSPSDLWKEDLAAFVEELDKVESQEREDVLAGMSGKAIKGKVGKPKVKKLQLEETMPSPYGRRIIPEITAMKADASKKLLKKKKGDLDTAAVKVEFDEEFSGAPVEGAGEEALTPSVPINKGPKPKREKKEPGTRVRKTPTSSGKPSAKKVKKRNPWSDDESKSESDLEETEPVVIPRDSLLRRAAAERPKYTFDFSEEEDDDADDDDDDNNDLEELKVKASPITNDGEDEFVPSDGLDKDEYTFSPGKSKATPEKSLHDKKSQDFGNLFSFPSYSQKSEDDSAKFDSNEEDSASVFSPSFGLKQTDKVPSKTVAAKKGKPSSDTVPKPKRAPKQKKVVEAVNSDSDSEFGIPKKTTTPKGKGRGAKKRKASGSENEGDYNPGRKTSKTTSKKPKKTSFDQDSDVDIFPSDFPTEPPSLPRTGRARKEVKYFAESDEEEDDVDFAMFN

Substance | binding
Nucleophosmin1 (NPM1) (from UniProt P06748 1-294) | binds
Topoisomerase IIβ (Topo IIβ), endogenous (from UniProt Q02880 1-1626) (enzyme) | binds
